Source: publication PMC10734772 (Turkish Journal of Chemistry, 2021)

Columns and labels:
K562 = test: MTT assay, K562 cells; format: cell-based; conditions: Homo sapiens, 24 h, range 0.3–200 μM, six replicates
Procedure: (§1) K562, Jurkat, Molt-4, and Nalm-6 cell lines were cultured in RPMI-1640 medium (ECM2001, Euroclone), Reh cell line was cultured in DMEM medium (LM-D1111-Biosera) Hek293T cell line was cultured in IMDM medium (AL070A - HiMedia) supplemented with 10% heat-inactivated fetal bovine serum (F7524-Merck & Co., USA,) penicillin and streptomycin (P4333-Sigma Aldrich). K562, Jurkat and Molt-4 cell lines were seeded as 4x10^5/ml, Reh and Nalm-6 cell lines were seeded 5x10^5/ml, Hek293T cell line was seed as 2x10^5/ml. All cells were incubated at 5% CO2 and 37 °C. All cell lines were kindly provided by Dr. M. Sayitoglu and Dr. Ö. Hatirnaz-Ng from Acibadem University.
(§2) MTT assay is a 3-day test. […]
(§3) After incubation (on the third day), to precipitate leukemia cells, the cell plate was centrifuged at 1500 rpm for 5 min. […] Then the optical density of each well was measured by using Thermo VarioSkan Flush Multimode Reader Quantum ST5-1100 at 570 nm wavelength.
(§4) Subsequently, viability rate of the cells at each concentration, as percentage, was determined by following formula (1): […]
(§5) The IC50 values were calculated by using GraphPad Prism. […] Results were analyzed and illustrated with Graph Pad Prism (version 5; GraphPad Software, San Diego, CA, USA). […]

Nalm-6 = test: MTT assay, Nalm-6 cells; format: cell-based; conditions: Homo sapiens; Nalm-6, MTT, 24 h, range 0.3–200 μM, six replicates
Procedure: as §1, §2, §3, §4, §5

## Cc1ccc(NC(=O)c2ccc(CN3CCN(C)CC3)cc2)cc1Nc1nccc(-c2cccnc2)n1 [imatinib, reference compound]
K562
  IC50: 78.4 µM
Nalm-6
  IC50: 16.1 µM
